# Percent effect of library compounds

The chains behind the UniProt entries cited, without tags or fusion partners. Residues count along the entry.
UniProt A4I591, 1-473: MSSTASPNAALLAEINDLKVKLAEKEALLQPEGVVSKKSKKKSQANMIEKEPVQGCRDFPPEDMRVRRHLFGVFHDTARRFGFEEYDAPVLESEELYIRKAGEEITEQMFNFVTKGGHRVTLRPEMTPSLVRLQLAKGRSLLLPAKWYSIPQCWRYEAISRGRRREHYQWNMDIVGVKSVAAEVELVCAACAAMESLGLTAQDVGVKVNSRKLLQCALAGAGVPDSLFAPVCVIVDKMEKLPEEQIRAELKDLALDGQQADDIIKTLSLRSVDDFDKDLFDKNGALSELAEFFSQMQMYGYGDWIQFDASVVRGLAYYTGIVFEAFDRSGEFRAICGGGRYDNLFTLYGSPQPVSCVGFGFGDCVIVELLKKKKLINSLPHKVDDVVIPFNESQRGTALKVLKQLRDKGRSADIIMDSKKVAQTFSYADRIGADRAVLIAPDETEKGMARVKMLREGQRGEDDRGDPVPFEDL
UniProt P9WFT3, whole entry: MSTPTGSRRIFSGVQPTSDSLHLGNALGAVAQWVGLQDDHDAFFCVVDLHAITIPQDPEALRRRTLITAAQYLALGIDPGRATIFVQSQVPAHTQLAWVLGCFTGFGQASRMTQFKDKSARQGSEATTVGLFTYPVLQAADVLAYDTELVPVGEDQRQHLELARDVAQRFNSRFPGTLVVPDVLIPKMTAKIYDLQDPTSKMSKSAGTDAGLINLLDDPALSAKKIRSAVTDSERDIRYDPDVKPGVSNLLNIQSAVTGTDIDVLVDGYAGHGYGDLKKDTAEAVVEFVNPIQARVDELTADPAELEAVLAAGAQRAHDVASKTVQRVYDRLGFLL

Source: ChEMBL document CHEMBL3988442, “University of Dundee, Small-Polar-MMV Screening Library” (2021).

LiHisRS: 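Histidine-tRNA ligase, Leishmania infantum (UniProt A4I591). Enzyme assay of histidyl-tRNA synthetase; the read-out is not stated. Compounds at 30 µM. The record gives no direction; compounds that gave an IC50 in retests scored well above the rest, so higher reads as stronger inhibition. The assay is labelled LdHisRS but filed under L. infantum. Of about 69,000 compounds tested this way, about 410 (0.6%) reached 50% or more in at least one test.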
MtTrpRS: 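Enzyme assay of tryptophanyl-tRNA synthetase; the read-out is not stated. Target: Tryptophan-tRNA ligase, Mycobacterium tuberculosis (UniProt P9WFT3). Compounds at 10 µM. Direction is not recorded; retested compounds ran higher, which suggests that high means inhibition. Of about 65,000 compounds tested this way, about 64 (0.098%) reached 50% or more in at least one test.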

Each number is a percent effect as filed.
The record does not define 0% and 100%; most values in the screen are far below 50% and negative numbers occur (in some assays of this library far below -100).
Compounds were drawn at random from those tested, without regard to their results.
Two or more numbers in one place are separate tests of the same structure; such repeats can differ widely.

For Cc1ccccc1C1CN(c2cnn(C)c(=O)c2Cl)CCO1 (configuration not stated) the result was LiHisRS: 2.857%; MtTrpRS: -3.406%.
For O=C(Cn1cnc(NC(=O)c2ccccn2)n1)NCc1ccccc1 the result was LiHisRS: 14.52%; MtTrpRS: 2.342%.
For CCN(CC)C(=O)Cn1cc(C(=O)NCCc2nc(C)c(C)s2)nn1 the result was LiHisRS: -2.667%; MtTrpRS: -5.513%.
For CC(Oc1ccccc1)C(=O)N1CCCN(Cc2cscn2)CC1 (configuration not stated) the result was LiHisRS: 20.18%; MtTrpRS: -2.704%.
For COc1ccc(-c2nccn2C[C@@H]2CCCN3CCCC[C@H]23)cc1 the result was LiHisRS: 10.75%; MtTrpRS: -2.918%.
For COc1cccc(S(=O)(=O)NC(=O)COC2CCCC2)c1 the result was LiHisRS: 19.18%; MtTrpRS: 4.077%.
For Cc1nc2n(n1)CC(NCCc1cccs1)CC2 (configuration not stated) the result was LiHisRS: 16.88%; MtTrpRS: 5.374%.
For Cn1cccc1C(CNC(=O)COc1ccc(Cl)cc1Cl)N1CCCC1 (configuration not stated) the result was LiHisRS: 20.87%; MtTrpRS: -1.596%.
For Cc1cc(N2CCc3cncnc3C2)n2nc(C(F)(F)F)nc2n1 the result was LiHisRS: 29.63%; MtTrpRS: 6.041%.
For CC(=O)Nn1c(C)cc(CN2CCC(c3ccncc3)CC2)c1C the result was LiHisRS: 17.33%; MtTrpRS: -0.2653%.
For O=C(CCC1CCCO1)NCCCO (configuration not stated) the result was LiHisRS: 4.651%; MtTrpRS: 1.888%.
For COc1ccc(CN2C[C@@H]3CN(C(=O)[C@H]4CCCO4)C[C@@H]3C2=O)cc1 the result was LiHisRS: 9.615%; MtTrpRS: -9.302%.
For CN1CCCC(N(C)C(=O)c2ccc(NC(=O)c3ccc[nH]3)cc2)C1 (configuration not stated) the result was LiHisRS: 16%; MtTrpRS: -6.57%.
For O=C(NCc1cccs1)C1CCN(c2cc(-n3ccnc3)ncn2)CC1 the result was LiHisRS: 6.957%; MtTrpRS: 0.8359%.
For COc1ccc(C(=O)N2CCCC(n3cc(C)cn3)C2)c(F)c1 (configuration not stated) the result was LiHisRS: 12.07%; MtTrpRS: -5.542%.
For CC(=O)N1CC[C@H]2CC(=O)N(C3CCCCC3)CC[C@H]2C1 the result was LiHisRS: 25%; MtTrpRS: -1.581%.
For Cc1ccoc1C(=O)N1CCO[C@H]2[C@H](OCCN(C)C)CC[C@@H]21 the result was LiHisRS: 11.32%; MtTrpRS: 0.1049%.
For CCOc1ncccc1NC(=O)c1sccc1C the result was LiHisRS: 18.27%; MtTrpRS: -7.204%.
For Cc1[nH]c2c(F)cccc2c1CC(=O)NCc1csc(N(C)C)n1 the result was LiHisRS: 12%; MtTrpRS: -3.116%.
For CCn1c(C2CCCN(C(=O)c3ccc[nH]3)C2)nn(CCN(C)C)c1=O (configuration not stated) the result was LiHisRS: 10.4%; MtTrpRS: -0.942%.
For CC(=O)Nc1ccc(C(=O)Nc2cnc3n2CCCC3)c(C)c1 the result was LiHisRS: 9.589%; MtTrpRS: -1.205%.
For O=c1[nH]c(-c2ccccc2)nc2c1CCN(S(=O)(=O)N1CCCC1)C2 the result was LiHisRS: 19.35%; MtTrpRS: 5.583%.
For CC1=Nc2c(c(=O)[nH]n2C2CCCCC2)C(c2ccc(C(=O)O)cc2)S1 (configuration not stated) the result was LiHisRS: 21.74% & 38.04%; MtTrpRS: 0.4823% & 5.288%.
For CCNC(=O)N1CCC(NC(=O)NCCc2cccc(C)c2)C1 (configuration not stated) the result was LiHisRS: 2.128%; MtTrpRS: 0.06345%.
For COc1ccnc(N(C)Cc2csc(C)n2)n1 the result was LiHisRS: 1.316%; MtTrpRS: -1.188%.

For reference, 2 entries once more:

With CC(=O)Nc1ccc(C(=O)Nc2cnc3n2CCCC3)c(C)c1 the screen gave LiHisRS: 9.589%; MtTrpRS: -1.205%.
With Cc1nc2n(n1)CC(NCCc1cccs1)CC2 (configuration not stated) the screen gave LiHisRS: 16.88%; MtTrpRS: 5.374%.